The values that follow come from patent US10736941B2, “Cell membrane-permeating peptide” (NATIONAL UNIVERSITY CORPORATION KUMAMOTO UNIVERSITY, priority 2015, dated 2020).

No dose or concentration is given here for some results.

The data set relates to Caco-2 cells. Description: Screening of phage library (C7C, 7 random amino acids) for peptides permeating Caco-2 cells. It is filed as cell-based, human. The note with it: appearance frequency of the 7-amino-acid sequence in three experiments of Caco-2 permeation selection.
As for “TVSRPAF (cyclic; identified using phage display)”, the “Appearance Frequency” value came to 3.
Take “DNPGNET (cyclic peptide; identified using phage display)”: the “Appearance Frequency” value came out at 3.
As for “PFMSVAN (cyclic; identified using phage display)”, the figure is 2; as for “HSNDPRN (cyclic; identified using phage display)”, 3.
